Measured values reported in patent US20080176957A1, “PRESERVATIVE COMPOSITIONS COMPRISING RENEWABLY-BASED, BIODEGRADABLE 1,3-PROPANEDIOL” (priority 2006, published 2008).
Some results were stated once for a whole list of compounds, not compound by compound. For at least one compound, name, drawing or mass did not settle the structure.

System: Aspergillius niger, Candida albicans, Blue/green Penicillium, and Trichoderma
Test: CTFA challenge test on neat glycols with fungal spores (Example 4)
Format: cell-based
Conditions: neat glycol; six hours after inoculation with approximately 6×10^5 fungal spores

With OCCCO [Bio-PDO™, 1,3-propanediol] the Number of colonies was < 10.
